# From the supplement of paper PMC12067093, “Discovery and optimisation of a covalent ligand for TRIM25 and its application to targeted protein ubiquitination” (Chemical Science, 2025)
# Amino acid sequences for entries named in this document (tags omitted). A change or cut given only in a name is not applied to a line headed by its entry.
# UniProt P29466: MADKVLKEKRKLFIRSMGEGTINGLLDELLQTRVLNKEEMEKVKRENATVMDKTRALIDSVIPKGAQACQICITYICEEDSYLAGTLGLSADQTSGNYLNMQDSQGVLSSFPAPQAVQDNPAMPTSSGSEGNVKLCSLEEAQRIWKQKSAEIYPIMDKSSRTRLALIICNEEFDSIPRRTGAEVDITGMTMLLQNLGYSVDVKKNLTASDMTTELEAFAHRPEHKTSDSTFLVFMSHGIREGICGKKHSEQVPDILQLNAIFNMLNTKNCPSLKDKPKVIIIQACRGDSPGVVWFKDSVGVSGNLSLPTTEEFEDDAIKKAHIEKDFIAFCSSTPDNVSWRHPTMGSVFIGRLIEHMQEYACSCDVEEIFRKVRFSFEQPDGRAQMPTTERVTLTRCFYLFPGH
# UniProt A6NC98: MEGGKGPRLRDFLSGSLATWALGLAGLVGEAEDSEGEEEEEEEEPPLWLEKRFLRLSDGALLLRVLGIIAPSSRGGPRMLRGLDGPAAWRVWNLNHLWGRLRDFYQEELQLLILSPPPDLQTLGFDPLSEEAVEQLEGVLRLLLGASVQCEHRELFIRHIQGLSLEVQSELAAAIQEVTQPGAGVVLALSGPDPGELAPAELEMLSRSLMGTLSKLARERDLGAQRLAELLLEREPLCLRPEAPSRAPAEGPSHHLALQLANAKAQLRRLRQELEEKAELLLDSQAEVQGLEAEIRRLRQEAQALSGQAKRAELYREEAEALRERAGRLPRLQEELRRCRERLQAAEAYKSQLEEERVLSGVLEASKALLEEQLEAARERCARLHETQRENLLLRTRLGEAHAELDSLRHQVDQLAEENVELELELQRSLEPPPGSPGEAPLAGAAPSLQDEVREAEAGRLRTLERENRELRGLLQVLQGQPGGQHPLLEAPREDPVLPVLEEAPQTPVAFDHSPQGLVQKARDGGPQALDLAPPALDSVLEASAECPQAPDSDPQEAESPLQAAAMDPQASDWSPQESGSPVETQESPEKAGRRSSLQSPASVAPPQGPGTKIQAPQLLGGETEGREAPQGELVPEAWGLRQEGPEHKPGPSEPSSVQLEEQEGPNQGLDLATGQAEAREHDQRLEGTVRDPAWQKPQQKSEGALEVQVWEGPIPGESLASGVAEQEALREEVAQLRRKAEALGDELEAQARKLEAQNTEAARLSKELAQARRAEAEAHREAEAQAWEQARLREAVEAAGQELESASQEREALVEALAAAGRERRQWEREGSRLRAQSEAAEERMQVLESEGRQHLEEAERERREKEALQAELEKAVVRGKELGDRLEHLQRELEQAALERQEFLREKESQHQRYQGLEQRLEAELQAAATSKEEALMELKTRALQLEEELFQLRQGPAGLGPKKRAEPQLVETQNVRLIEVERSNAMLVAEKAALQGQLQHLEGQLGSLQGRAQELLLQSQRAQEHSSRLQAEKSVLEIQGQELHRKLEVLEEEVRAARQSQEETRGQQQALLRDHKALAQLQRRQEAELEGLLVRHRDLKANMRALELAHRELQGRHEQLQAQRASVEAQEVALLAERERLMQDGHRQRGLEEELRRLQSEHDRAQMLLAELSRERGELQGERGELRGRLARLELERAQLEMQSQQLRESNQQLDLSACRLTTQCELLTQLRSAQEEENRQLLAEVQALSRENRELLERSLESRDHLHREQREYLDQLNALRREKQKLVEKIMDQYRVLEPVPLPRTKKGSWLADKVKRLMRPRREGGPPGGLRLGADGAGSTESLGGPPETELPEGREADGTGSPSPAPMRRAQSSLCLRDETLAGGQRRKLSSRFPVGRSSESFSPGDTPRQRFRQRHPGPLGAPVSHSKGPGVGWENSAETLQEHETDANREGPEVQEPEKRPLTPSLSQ
# UniProt P40123, whole entry, looked up: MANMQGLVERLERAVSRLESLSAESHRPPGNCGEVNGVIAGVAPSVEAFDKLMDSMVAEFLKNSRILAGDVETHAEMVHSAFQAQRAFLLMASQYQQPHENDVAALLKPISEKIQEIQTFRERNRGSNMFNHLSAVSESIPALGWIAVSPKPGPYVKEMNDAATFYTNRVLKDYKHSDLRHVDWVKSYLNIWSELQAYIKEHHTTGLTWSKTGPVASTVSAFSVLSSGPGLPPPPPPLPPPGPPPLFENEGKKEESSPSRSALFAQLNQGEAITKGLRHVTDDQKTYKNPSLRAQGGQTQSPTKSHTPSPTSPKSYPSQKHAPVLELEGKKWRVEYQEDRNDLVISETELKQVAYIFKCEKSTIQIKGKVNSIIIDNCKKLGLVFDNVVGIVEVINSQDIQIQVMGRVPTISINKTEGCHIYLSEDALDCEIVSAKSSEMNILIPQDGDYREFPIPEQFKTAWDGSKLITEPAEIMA
# UniProt P49589: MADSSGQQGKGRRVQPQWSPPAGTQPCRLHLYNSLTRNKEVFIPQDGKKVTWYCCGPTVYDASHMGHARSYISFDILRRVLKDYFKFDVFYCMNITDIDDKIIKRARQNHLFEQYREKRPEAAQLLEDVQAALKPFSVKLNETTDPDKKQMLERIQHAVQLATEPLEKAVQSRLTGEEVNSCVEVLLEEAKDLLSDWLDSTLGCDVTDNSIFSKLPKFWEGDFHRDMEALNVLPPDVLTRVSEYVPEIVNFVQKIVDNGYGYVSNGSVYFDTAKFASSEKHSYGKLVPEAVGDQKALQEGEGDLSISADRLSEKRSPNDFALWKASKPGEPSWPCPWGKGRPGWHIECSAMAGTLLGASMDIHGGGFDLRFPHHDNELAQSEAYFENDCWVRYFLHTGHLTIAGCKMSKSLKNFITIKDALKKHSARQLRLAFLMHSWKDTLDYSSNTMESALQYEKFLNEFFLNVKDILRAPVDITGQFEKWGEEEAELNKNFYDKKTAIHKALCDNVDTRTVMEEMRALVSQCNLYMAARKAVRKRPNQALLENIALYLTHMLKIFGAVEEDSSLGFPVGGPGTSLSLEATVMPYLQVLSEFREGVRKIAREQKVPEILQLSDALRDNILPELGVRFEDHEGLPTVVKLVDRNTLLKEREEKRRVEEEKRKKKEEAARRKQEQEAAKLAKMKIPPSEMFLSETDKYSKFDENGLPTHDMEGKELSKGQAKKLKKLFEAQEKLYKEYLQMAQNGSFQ
# UniProt P16152: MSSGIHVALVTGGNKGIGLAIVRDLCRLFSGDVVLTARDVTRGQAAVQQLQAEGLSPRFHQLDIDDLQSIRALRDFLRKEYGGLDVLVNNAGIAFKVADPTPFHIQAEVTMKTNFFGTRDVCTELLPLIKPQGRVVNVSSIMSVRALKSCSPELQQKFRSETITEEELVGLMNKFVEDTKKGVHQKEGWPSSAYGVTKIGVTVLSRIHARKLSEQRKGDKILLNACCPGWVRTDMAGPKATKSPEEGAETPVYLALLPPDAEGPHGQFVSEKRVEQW
# UniProt P78371: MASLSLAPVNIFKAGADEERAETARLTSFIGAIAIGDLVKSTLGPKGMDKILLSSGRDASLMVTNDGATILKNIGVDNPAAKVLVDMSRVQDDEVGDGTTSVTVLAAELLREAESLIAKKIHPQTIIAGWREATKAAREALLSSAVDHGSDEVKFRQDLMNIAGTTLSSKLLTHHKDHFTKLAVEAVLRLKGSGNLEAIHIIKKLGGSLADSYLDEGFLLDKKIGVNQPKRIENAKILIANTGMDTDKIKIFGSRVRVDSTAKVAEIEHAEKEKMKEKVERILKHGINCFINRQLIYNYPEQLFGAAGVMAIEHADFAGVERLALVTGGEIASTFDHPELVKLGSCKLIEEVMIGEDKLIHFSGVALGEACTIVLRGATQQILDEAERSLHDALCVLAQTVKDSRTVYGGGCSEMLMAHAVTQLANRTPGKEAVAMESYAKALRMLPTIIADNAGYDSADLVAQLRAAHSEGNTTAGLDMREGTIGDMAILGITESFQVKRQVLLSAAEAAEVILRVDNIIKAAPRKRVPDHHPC
# UniProt P51946: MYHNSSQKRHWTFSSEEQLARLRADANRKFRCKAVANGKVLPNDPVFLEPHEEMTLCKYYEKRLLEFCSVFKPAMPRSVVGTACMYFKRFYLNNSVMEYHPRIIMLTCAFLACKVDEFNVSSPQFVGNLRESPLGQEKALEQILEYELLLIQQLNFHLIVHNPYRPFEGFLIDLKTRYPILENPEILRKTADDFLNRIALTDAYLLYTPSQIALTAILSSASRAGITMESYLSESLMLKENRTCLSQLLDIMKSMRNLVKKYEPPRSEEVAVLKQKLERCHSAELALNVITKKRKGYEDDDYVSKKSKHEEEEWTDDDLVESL
# UniProt Q01518, whole entry, looked up: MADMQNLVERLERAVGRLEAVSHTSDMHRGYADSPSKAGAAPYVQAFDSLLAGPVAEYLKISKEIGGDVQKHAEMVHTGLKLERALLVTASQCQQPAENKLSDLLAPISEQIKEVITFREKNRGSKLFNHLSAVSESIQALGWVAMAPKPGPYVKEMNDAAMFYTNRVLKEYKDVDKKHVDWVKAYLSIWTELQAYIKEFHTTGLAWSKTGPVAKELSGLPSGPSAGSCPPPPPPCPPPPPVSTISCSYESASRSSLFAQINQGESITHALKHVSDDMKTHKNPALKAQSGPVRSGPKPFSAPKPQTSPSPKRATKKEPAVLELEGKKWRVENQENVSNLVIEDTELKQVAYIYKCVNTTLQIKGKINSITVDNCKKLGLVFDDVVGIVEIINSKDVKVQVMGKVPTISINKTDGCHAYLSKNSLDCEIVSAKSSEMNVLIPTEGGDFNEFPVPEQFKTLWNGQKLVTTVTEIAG
# UniProt P17655: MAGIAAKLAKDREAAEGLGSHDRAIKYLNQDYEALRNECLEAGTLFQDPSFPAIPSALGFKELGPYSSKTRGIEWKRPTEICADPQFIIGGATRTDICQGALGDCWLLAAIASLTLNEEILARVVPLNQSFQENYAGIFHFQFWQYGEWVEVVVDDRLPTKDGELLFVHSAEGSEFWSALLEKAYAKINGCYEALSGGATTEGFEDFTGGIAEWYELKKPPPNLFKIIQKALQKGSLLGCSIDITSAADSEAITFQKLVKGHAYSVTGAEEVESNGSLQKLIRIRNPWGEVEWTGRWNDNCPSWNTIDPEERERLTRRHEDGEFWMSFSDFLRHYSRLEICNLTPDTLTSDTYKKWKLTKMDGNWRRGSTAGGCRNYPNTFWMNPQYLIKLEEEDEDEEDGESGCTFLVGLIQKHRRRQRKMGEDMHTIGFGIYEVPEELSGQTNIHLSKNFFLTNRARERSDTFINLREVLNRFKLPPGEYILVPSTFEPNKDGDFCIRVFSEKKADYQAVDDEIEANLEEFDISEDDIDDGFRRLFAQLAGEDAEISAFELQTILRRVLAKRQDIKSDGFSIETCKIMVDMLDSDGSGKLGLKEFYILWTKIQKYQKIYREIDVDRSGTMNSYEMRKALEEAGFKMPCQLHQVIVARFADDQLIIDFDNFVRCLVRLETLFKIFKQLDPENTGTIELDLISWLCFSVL
# UniProt Q5T0F9: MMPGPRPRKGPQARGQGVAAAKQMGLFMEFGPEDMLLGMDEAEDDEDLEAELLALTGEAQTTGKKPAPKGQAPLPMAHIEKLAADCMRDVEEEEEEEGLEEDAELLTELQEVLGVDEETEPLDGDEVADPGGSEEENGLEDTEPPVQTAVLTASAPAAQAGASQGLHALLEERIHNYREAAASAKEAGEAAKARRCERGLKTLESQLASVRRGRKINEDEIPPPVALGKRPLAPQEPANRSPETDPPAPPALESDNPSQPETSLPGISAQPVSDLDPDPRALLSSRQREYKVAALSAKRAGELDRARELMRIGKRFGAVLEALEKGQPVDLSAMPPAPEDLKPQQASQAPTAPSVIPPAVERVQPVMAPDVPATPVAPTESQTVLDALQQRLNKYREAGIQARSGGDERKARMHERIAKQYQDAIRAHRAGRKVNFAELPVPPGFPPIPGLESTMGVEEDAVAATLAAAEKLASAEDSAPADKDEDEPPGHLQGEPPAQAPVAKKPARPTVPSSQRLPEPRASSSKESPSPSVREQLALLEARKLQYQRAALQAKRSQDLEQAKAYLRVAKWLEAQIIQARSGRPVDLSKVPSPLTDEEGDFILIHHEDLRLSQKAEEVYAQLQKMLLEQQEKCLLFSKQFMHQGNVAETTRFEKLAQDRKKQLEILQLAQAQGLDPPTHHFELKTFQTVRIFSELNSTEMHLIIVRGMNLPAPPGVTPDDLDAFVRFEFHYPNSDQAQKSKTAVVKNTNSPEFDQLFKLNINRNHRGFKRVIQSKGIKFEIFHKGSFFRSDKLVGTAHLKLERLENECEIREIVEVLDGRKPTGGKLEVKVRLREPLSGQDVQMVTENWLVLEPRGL
# UniProt P13501: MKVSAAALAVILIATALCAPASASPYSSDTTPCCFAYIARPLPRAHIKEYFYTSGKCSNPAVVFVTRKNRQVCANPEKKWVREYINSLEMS
# UniProt Q13951, whole entry, looked up: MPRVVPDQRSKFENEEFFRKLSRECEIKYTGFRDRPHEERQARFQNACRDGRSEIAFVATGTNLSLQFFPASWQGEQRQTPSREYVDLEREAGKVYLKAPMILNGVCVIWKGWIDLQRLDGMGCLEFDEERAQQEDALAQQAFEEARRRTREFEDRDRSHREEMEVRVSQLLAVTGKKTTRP
# The other results are listed elsewhere or left out.
# Compound: CC1Cc2ccccc2N1C(=O)C1CCCN(C1)C(=O)CCl (mixture of isomers) [TRIM25 ligand 11 (diastereomer mixture)]
# Assay: probe-labelled cysteine peptide fold change vs DMSO (competition) (log2 fold change); higher = less target engagement (more negative = stronger competition)
# Conditions: THP-1, incubation time: 4 h
# 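Further: competitive chemoproteomic profiling in live THP-1 cells with an iodoacetamide desthiobiotin (IA-DTB) probe, comparing probe-labelled peptide intensities in compound-treated cells against DMSO-treated controls.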
Target,probe-labelled cysteine peptide fold change (10 µM),probe-labelled cysteine peptide fold change (50 µM)
CASP1_P29466_270_NCPSLK (UniProt P29466),-0.0461,-0.0914
CASP10_Q92851_169_IDEDNLTCLEDLCK (UniProt Q92851),-0.0469,0.0215
CASP3_P42574_220_DGSWFIQSLCAMLK (UniProt P42574),-0.306,-0.13
CCAR2_Q8N163_754_VVTQNICQYR (UniProt Q8N163),-0.0471,-0.0573
CCAR2_Q8N163_644_GEASEDLCEMALDPELLLLRDDGEEEFAGAK (UniProt Q8N163),0.182,0.0749
CASP8_Q14790_313_IYQLMDHSNMDCFICCILSHGDK (UniProt Q14790),0.00975,0.167
CAPN1_P07384_11_SEEIITPVYCTGVSAQVQK (UniProt P07384),-0.164,-0.105
CCDC88B_A6NC98_1222_ESNQQLDLSACR (UniProt A6NC98),-0.0803,-0.243
CAPN15_O75808_9_ATVGEWSCVR (UniProt O75808),0.348,0.0161
CASP2_P42575_440_EMSEYCSTLCR (UniProt P42575),-0.0238,-0.169
CAST_P20810-2_228_ELLAKPIGPDDAIDALSSDFTCGSPTAAGK (UniProt P20810),0.172,-0.23
CASP2_P42575_305_LLQLQEVFQLFDNANCPSLQNKPK (UniProt P42575),-0.092,-0.263
CCDC88B_A6NC98_238_EPLCLRPEAPSR (UniProt A6NC98),0.135,0.201
CASP2_P42575_244_LLGYDVHVLCDQTAQEMQEK (UniProt P42575),0.00292,-0.00038
CCDC47_Q96A33_209_LNQENEHIYNLWCSGR (UniProt Q96A33),0.0321,-0.0355
CASP1_P29466_364_LIEHMQEYACSCDVEEIFR (UniProt P29466),-0.0418,-0.157
CAP2_P40123_378_VNSIIIDNCKK (UniProt P40123),-0.0354,0.187
CASP10_Q92851_386_EIMSHFTALQCPR (UniProt Q92851),0.152,0.172
CARM1_Q86X55_438_AGDTLSGTCLLIANKR (UniProt Q86X55),-0.00211,0.0552
CASP8_Q14790_409_YIPDEADFLLGMATVNNCVSYR (UniProt Q14790),-0.017,-0.298
CASP6_P55212_277_KQVPCFASMLTK (UniProt P55212),-0.0264,-0.0725

Target,probe-labelled cysteine peptide fold change (10 µM),probe-labelled cysteine peptide fold change (50 µM)
CBFA2T3_O75081_423_CQEADREELNHWAR (UniProt O75081),0.0527,0.0776
CAPZA1_P52907_141_DHYSNGFCTVYAK (UniProt P52907),0.13,-0.0952
CASP1_P29466_285_VIIIQACR (UniProt P29466),-0.167,-0.214
CBX8_Q9HC52_142_NMGLSPPASSTSTSSTCR (UniProt Q9HC52),-0.00929,-0.325
CASP10_Q92851_169_QGKIDEDNLTCLEDLCK (UniProt Q92851),0.00628,-0.119
CANX_P27824_160_LNKPFLFDTKPLIVQYEVNFQNGIECGGAYVK (UniProt P27824),-0.123,-0.202
CCT3_P49368_366_KIGDEYFTFITDCK (UniProt P49368),0.0365,0.0714
CARS_P49589_27_RVQPQWSPPAGTQPCR (UniProt P49589),-0.117,0.0505
CAPNS1_P04632_232_RYSDESGNMDFDNFISCLVR (UniProt P04632),0.0771,0.109
CCNB2_O95067_131_IEDIDNEDWENPQLCSDYVK (UniProt O95067),0.105,0.113
CASP3_P42574_264_KQIPCIVSMLTK (UniProt P42574),-0.0541,-0.098
CARS_P49589_27_VQPQWSPPAGTQPCR (UniProt P49589),-0.0897,-0.267
CCAR2_Q8N163_238_VHLTPYTVDSPICDFLELQR (UniProt Q8N163),-0.139,-0.437
CASP8_Q14790_287_NGTHLDAGALTTTFEELHFEIKPHDDCTVEQIYEILK (UniProt Q14790),0.00791,0.0884
CASP10_Q92851_350_CNPAHADGDCFVFCILTHGR (UniProt Q92851),0.0596,0.033
CBR1_P16152_122_DVCTELLPLIK (UniProt P16152),0.158,0.184
CASP4_P49662_142_LALIICNTEFDHLPPR (UniProt P49662),-0.00871,0.0226
CAPN1_P07384_417_ESGCSFVLALMQK (UniProt P07384),0.0989,0.133
CAP2_P40123_430_TEGCHIYLSEDALDCEIVSAK (UniProt P40123),0.127,0.0915
CANX_P27824_160_PLIVQYEVNFQNGIECGGAYVK (UniProt P27824),0.0907,0.185
CCT2_P78371_371_LIHFSGVALGEACTIVLR (UniProt P78371),-0.0596,-0.278

Target,probe-labelled cysteine peptide fold change (10 µM),probe-labelled cysteine peptide fold change (50 µM)
CASP4_P49662_217_SSDSTFLVLMSHGILEGICGTVHDEK (UniProt P49662),0.168,0.107
CCNH_P51946_57_VLPNDPVFLEPHEEMTLCK (UniProt P51946),0.0345,0.154
CAPN1_P07384_677_YSEPDLAVDFDNFVCCLVR (UniProt P07384),0.404,0.364
CAP1_Q01518_427_NSLDCEIVSAK (UniProt Q01518),-0.0214,-0.124
CASP9_P55211_272_IVNIFNGTSCPSLGGKPK (UniProt P55211),-0.238,-0.121
CASP1_P29466_136_LCSLEEAQR (UniProt P29466),-0.0101,0.0769
CARNMT1_Q8N4J0_115_CIDHNQEILLTIVNDCIHMFENK (UniProt Q8N4J0),0.186,-0.0019
CCAR1_Q8IX12_744_SGKFDCSIMSLSVLLDYR (UniProt Q8IX12),0.105,0.158
CASP6_P55212_113+116_IHEVSTVSHADADCFVCVFLSHGEGNHIYAYDAK (UniProt P55212),0.259,0.113
CAP1_Q01518_356_CVNTTLQIK (UniProt Q01518),-0.031,0.0667
CARD9_Q9H257_402_ADELQLQVFQCEAQLLAVEGR (UniProt Q9H257),-0.0288,0.0818
CCT3_P49368_398_NLQDAMQVCR (UniProt P49368),-0.0864,-0.151
CAPN2_P17655_640_MPCQLHQVIVAR (UniProt P17655),0.0385,-0.0365
CAST_P20810_328_CGEDDETIPSEYR (UniProt P20810),-0.166,-0.0812
CBR1_P16152_226_ILLNACCPGWVR (UniProt P16152),-0.00652,-0.0415
CASP8AP2_Q9UKL3_1647_MGHSDEVADECFK (UniProt Q9UKL3),-0.124,-0.394
CCAR2_Q8N163_644_GEASEDLCEMALDPELLLLR (UniProt Q8N163),0.0494,-0.135
CCAR1_Q8IX12_579_TVPAHVETVVLFFPDVWHCLPTR (UniProt Q8IX12),-0.248,-0.135
CASP10_Q92851_341+350_CNPAHADGDCFVFCILTHGR (UniProt Q92851),-0.021,-0.0669
CASP8AP2_Q9UKL3_270_DLSTGCGDGEPR (UniProt Q9UKL3),-0.112,-0.23
CAPN2_P17655_82_RPTEICADPQFIIGGATR (UniProt P17655),0.0181,-0.0698

Target,probe-labelled cysteine peptide fold change (10 µM),probe-labelled cysteine peptide fold change (50 µM)
CBX3_Q13185_177_LTWHSCPEDEAQ (UniProt Q13185),-0.129,-0.248
CCNH_P51946_280_CHSAELALNVITK (UniProt P51946),0.0814,0.00976
CCT2_P78371_535_VPDHHPC (UniProt P78371),0.12,-0.0854
CC2D1B_Q5T0F9_634_CLLFSK (UniProt Q5T0F9),-0.0196,-0.166
CASP2_P42575_320_MFFIQACR (UniProt P42575),-0.0831,0.0136
CCP110_O43303_174_QCDSSNISHVENEAFPK (UniProt O43303),-0.106,-0.109
CCDC22_O60826_369_TLGVSFVQAESECR (UniProt O60826),0.0216,0.0744
CARM1_Q86X55_438_AGDTLSGTCLLIANK (UniProt Q86X55),-0.0311,0.13
CCL5_P13501_73_QVCANPEK (UniProt P13501),-0.256,-0.339
CAPN7_Q9Y6W3_120_ENVEDAIELYTEAVDLCLK (UniProt Q9Y6W3),0.0227,0.0437
CCAR2_Q8N163_324_CCMLFVDDMAEPR (UniProt Q8N163),-0.0215,-0.194
CCDC97_Q96F63_122_TGLREEHLACFGHVR (UniProt Q96F63),-0.0204,0.208
CCAR1_Q8IX12_539_ALTGIDLSVCTQWYR (UniProt Q8IX12),-0.0774,-0.142
CCT2_P78371_289_HGINCFINR (UniProt P78371),-0.0334,0.0506
CCNK_O75909_99_YVTGACCLFLAGK (UniProt O75909),0.1,0.32
CCDC91_Q7Z6B0_424_SLSSLELFLSCAQK (UniProt Q7Z6B0),0.0206,-0.102
CCDC22_O60826_215_VASLLEHHALQLCQQTGR (UniProt O60826),0.0578,-0.0071
CCDC88B_A6NC98_1382_AQSSLCLRDETLAGGQR (UniProt A6NC98),-0.221,-0.355
CBFB_Q13951_124_LDGMGCLEFDEER (UniProt Q13951),0.0547,-0.0431
CCDC9_Q9Y3X0_233_CGLEHER (UniProt Q9Y3X0),-0.0693,-0.231
CC2D1B_Q5T0F9_809_LENECEIR (UniProt Q5T0F9),0.15,0.151

# As entered above:
# In probe-labelled cysteine peptide fold change (10 µM), CBFB_Q13951_124_LDGMGCLEFDEER (UniProt Q13951) reads 0.0547
# In probe-labelled cysteine peptide fold change (10 µM), CCDC22_O60826_369_TLGVSFVQAESECR (UniProt O60826) reads 0.0216
# In probe-labelled cysteine peptide fold change (10 µM), CCDC88B_A6NC98_1382_AQSSLCLRDETLAGGQR (UniProt A6NC98) reads -0.221
# In probe-labelled cysteine peptide fold change (50 µM), CCAR1_Q8IX12_539_ALTGIDLSVCTQWYR (UniProt Q8IX12) reads -0.142
# In probe-labelled cysteine peptide fold change (50 µM), CASP2_P42575_320_MFFIQACR (UniProt P42575) reads 0.0136
# In probe-labelled cysteine peptide fold change (10 µM), CARM1_Q86X55_438_AGDTLSGTCLLIANK (UniProt Q86X55) reads -0.0311
